For the assay, the target named is AtMPK6 (Arabidopsis thaliana MAP kinase 6) (Arabidopsis thaliana) (UniProt Q39026). As to the kind of experiment: SEC; Superdex 200 10/300 at 4°C; equal amounts of the two proteins incubated at 4°C for 60 min; 10 mM Tris-HCl pH 8.0, 150 mM NaCl, 2 mM dithiothreitol; 0.5 mL fractions on SDS-PAGE, Coomassie blue; both purified.

The chains behind the UniProt entries cited, without tags or fusion partners. Where a name states a change or a piece, a line headed by the entry shows the natural chain unless it says otherwise.
UniProt Q39026: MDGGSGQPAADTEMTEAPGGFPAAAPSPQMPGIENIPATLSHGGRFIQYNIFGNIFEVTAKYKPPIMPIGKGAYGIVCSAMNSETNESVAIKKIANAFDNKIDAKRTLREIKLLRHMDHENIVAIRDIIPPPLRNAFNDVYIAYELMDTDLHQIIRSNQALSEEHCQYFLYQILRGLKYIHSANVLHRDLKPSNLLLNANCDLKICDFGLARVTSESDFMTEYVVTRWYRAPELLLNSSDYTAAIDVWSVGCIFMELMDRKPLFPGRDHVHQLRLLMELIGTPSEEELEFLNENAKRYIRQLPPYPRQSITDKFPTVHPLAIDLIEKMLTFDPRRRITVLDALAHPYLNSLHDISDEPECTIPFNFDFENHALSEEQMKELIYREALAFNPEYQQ
UniProt Q8RXG3: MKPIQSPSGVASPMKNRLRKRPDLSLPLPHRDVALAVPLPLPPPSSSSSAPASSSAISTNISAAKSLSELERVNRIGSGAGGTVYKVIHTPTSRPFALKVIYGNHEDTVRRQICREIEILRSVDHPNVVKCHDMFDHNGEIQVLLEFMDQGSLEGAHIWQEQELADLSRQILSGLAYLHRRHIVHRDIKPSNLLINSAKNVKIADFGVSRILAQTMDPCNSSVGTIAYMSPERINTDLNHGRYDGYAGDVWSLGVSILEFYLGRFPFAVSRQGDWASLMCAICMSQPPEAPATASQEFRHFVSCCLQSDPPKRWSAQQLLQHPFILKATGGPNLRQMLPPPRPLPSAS

These are yes or no findings as the source states them, for the method shown. Some binding calls cover weakened binding; strength is not graded here. Sequences can lack the tags named with a protein.

B1: putative KIM peptide of AtMKK5 with N-terminal His6-SUMO (peptide, UniProt Q8RXG3 14-32)
chain: MKNRLRKRPDLSLPLPHRD
As to B1, the binding result is on record as “binds”.

For the origin of these results see PMC9909325, “Crystal structure of the phosphorylated Arabidopsis MKK5 reveals activation mechanism of MAPK kinases” (Acta Biochimica et Biophysica Sinica, 2022).
